{"sequences": {"note": "The chains behind the UniProt entries cited, without tags or fusion partners.", "UniProt Q15858, whole entry": "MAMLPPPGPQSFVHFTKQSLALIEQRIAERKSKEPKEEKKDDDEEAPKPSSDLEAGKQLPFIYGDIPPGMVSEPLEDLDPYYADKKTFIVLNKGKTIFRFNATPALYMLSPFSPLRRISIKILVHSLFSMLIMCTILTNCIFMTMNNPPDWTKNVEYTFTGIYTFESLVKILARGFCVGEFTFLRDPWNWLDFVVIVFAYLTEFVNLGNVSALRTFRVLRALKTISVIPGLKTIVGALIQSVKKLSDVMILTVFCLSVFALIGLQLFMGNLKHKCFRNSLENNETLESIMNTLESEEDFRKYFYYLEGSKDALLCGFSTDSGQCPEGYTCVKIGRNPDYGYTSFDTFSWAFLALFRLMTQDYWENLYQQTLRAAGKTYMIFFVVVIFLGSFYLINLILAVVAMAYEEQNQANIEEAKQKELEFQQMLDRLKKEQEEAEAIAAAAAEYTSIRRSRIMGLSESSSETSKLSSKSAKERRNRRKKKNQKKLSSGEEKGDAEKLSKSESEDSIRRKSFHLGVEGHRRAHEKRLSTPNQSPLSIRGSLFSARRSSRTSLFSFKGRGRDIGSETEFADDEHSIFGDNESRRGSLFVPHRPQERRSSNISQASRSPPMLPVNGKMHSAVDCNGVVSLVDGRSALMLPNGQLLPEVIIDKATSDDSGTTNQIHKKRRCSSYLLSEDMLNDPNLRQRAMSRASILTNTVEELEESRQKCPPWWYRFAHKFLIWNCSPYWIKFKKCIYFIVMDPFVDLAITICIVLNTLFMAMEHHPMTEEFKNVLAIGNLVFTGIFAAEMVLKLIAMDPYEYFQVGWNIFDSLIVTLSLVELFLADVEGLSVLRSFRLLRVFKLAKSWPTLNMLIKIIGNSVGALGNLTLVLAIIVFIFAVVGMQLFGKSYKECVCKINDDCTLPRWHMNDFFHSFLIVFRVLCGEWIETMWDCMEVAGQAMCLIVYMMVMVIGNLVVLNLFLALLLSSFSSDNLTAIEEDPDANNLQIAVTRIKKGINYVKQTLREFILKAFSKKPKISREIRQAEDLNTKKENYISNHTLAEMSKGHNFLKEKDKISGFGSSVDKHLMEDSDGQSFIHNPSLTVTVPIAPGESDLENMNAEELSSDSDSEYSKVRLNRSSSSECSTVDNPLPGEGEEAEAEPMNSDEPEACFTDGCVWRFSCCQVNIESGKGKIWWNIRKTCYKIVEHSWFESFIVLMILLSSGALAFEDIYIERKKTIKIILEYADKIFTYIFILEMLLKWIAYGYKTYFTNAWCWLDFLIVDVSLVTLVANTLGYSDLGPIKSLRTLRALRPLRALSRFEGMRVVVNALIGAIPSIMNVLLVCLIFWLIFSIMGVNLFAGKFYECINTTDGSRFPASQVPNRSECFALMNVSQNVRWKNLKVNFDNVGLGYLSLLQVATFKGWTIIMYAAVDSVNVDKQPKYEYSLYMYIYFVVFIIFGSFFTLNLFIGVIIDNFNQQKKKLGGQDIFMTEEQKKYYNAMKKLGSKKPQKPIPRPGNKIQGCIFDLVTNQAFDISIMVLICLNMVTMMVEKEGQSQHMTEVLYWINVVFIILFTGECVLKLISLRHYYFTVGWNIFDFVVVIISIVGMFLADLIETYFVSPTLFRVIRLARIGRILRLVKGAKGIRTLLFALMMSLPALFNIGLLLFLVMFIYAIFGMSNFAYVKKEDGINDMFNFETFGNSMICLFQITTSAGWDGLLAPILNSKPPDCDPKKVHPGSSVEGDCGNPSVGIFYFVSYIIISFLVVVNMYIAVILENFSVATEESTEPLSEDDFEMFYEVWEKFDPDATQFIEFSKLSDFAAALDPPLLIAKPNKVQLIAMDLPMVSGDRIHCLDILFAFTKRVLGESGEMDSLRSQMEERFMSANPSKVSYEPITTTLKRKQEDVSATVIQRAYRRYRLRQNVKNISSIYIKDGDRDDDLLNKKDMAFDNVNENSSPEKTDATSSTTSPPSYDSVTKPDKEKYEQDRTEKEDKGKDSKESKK", "UniProt Q9NY46, whole entry": "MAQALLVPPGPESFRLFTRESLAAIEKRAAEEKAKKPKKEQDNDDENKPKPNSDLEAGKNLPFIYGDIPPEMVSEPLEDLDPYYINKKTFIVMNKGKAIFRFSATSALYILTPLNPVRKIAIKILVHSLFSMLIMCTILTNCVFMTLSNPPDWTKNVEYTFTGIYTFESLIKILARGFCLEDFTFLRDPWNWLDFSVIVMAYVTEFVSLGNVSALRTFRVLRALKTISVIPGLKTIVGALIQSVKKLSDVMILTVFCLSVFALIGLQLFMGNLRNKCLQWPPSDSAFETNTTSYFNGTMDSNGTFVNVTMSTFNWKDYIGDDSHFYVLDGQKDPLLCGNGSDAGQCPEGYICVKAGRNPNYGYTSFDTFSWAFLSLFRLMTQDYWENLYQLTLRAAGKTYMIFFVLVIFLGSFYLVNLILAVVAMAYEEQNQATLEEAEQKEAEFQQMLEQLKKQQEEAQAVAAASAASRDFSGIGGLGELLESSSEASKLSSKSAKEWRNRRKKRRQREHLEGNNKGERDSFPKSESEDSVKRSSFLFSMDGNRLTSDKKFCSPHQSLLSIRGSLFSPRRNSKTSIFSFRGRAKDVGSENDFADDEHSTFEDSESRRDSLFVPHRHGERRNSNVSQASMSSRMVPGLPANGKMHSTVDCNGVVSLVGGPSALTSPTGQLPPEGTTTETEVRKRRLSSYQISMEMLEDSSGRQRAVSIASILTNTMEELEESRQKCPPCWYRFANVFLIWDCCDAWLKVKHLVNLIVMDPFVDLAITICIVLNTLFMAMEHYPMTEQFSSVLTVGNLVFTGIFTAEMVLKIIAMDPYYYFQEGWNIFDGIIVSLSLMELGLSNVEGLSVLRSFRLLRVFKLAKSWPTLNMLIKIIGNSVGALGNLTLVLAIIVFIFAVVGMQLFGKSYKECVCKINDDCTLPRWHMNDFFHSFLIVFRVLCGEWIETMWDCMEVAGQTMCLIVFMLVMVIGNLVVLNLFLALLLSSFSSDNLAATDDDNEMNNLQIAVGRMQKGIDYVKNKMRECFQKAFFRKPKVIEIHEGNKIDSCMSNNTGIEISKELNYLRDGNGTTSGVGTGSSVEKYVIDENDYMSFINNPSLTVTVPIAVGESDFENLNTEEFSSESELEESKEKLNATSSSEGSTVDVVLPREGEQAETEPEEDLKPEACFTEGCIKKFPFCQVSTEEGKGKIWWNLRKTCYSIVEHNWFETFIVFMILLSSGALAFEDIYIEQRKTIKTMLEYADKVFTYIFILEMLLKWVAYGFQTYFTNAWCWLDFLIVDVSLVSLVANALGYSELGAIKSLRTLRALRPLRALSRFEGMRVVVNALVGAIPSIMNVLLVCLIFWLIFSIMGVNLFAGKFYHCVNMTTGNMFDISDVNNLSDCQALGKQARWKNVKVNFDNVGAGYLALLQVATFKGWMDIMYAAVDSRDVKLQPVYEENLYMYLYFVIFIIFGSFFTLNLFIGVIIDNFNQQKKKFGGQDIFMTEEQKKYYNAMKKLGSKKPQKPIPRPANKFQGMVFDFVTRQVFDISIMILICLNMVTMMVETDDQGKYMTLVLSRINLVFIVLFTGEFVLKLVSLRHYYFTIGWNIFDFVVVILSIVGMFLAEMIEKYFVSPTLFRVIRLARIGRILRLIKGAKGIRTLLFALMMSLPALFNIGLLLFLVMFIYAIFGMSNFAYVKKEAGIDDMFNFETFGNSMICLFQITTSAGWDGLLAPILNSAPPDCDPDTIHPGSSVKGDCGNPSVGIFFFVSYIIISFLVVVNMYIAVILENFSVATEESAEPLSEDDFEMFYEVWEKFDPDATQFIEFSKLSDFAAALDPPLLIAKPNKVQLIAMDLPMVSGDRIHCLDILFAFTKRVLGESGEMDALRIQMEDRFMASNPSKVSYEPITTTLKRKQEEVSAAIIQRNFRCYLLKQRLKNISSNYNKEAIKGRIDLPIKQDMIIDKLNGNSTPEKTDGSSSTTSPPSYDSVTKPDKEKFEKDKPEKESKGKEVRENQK"}, "source": "patent US20130023541A1", "about": "“VOLTAGE-GATED SODIUM CHANNEL BLOCKERS” (Glaxo Group Limited, priority 2010, published 2013)", "key": {"[1]": {"target": "NaV 1.7 (Homo sapiens, UniProt Q15858)", "test": "Use-dependent block of NaV1.7 currents, IonWorks Quattro planar array electrophysiology", "format": "cell-based", "conditions": "concentration producing 15% use-dependent inhibition, 10th versus 1st depolarizing pulse, 10 Hz"}, "[2]": {"target": "T1, hNaV1.3 channels (Homo sapiens, UniProt Q9NY46)", "T1 construct": "expressed in transfected cells", "test": "Use-dependent block of hNaV1.3 currents, IonWorks Quattro planar array electrophysiology", "format": "cell-based", "conditions": "concentration producing 15% use-dependent inhibition, 10th versus 1st depolarizing pulse, 10 Hz, CHO cells"}}, "note": "Where a name gives a salt, the structure may show the parent alone. Some of these results come from one statement about several compounds together."}
{"smiles": "COc1ccc(Nc2ccnc(N3CCN(Cc4ccccc4)CC3)c2C(=O)OC(C)C)cc1", "note": "[Example 107, 1-methylethyl 4-{[4-(methyloxy)phenyl]amino}-2-[4-(phenylmethyl)-1-piperazinyl]-3-pyridinecarboxylate]", "values": [{"measurement": "use-dependent pUD15 against NaV1.7", "setting": "[1]", "value": "4-4.99"}, {"measurement": "use-dependent pUD15 against NaV1.3", "setting": "[2]", "value": "4-4.99"}]}
{"smiles": "CC(C)OC(=O)c1cccnc1N1CCN(Cc2cccc(Oc3cc(Cl)cc(Cl)c3)c2)CC1", "note": "[Example 338]", "values": [{"measurement": "use-dependent pUD15 against NaV1.7", "setting": "[1]", "value": "inactive"}, {"measurement": "use-dependent pUD15 against NaV1.3", "setting": "[2]", "value": "inactive"}]}
{"smiles": "CCN(Cc1ccc(CN(CC)[C@@H]2CCN(c3ncccc3COC(=O)CC(C)(C)C)C2)cc1)[C@@H]1CCN(c2ncccc2COC(=O)CC(C)(C)C)C1", "note": "[Example 533, Benzene-1,4-diylbis[methanediyl(ethylimino)(3R)-3,1-pyrrolidinediyl-2,3-pyridinediylmethanediyl]bis(3,3-dimethylbutanoate) hydrochloride]", "values": [{"measurement": "use-dependent pUD15 against NaV1.7", "setting": "[1]", "value": "4-4.99"}, {"measurement": "use-dependent pUD15 against NaV1.3", "setting": "[2]", "value": "4-4.99"}]}
{"smiles": "CC(C)OC(=O)c1cccnc1N1CCN(Cc2ccccc2Oc2ccc(C#N)cc2)CC1", "note": "[Example 350]", "values": [{"measurement": "use-dependent pUD15 against NaV1.7", "setting": "[1]", "value": "5-5.99"}, {"measurement": "use-dependent pUD15 against NaV1.3", "setting": "[2]", "value": "5-5.99"}]}
{"smiles": "CC(C)OC(=O)c1cccnc1N1CCN(Cc2ccc(COc3ccc(C(C)(C)C)cc3)cc2)CC1", "note": "[Example 192]", "values": [{"measurement": "use-dependent pUD15 against NaV1.7", "setting": "[1]", "value": "inactive"}, {"measurement": "use-dependent pUD15 against NaV1.3", "setting": "[2]", "value": "inactive"}]}
{"smiles": "CC(C)OC(=O)c1cccnc1N1CCN(Cc2cccc(OCc3cccc(Cl)c3Cl)c2)CC1", "note": "[Example 416]", "values": [{"measurement": "use-dependent pUD15 against NaV1.7", "setting": "[1]", "value": "inactive"}, {"measurement": "use-dependent pUD15 against NaV1.3", "setting": "[2]", "value": "4-4.99"}]}
{"smiles": "CC(C)OC(=O)c1c(Nc2ccccc2F)ccnc1N1CCN(Cc2ccccc2)CC1", "note": "[Example 99, 1-methylethyl4-[(2-fluorophenyl)amino]-2-[4-(phenylmethyl)-1-piperazinyl]-3-pyridinecarboxylate]", "values": [{"measurement": "use-dependent pUD15 against NaV1.7", "setting": "[1]", "value": "4-4.99"}, {"measurement": "use-dependent pUD15 against NaV1.3", "setting": "[2]", "value": "4-4.99"}]}
{"smiles": "CC(C)OC(=O)c1cccnc1N1CCN(Cc2cccc(C(=O)N(C)C)c2)CC1", "note": "[Example 32, 1-methylethyl 2-[4-({3-[(dimethylamino)carbonyl]phenyl}methyl)-1-piperazinyl]-3-pyridinecarboxylate hydrochloride]", "values": [{"measurement": "use-dependent pUD15 against NaV1.7", "setting": "[1]", "value": "5-5.99"}, {"measurement": "use-dependent pUD15 against NaV1.3", "setting": "[2]", "value": "5-5.99"}]}
{"smiles": "COc1cc(CN2CCN(c3ncccc3C(=O)OC(C)C)CC2)ccc1OCc1ccc(Cl)cc1", "note": "[Example 329, 1-methylethyl 2-(4-{[4-{[(4-chlorophenyl)methyl]oxy}-3-(methyloxy)phenyl]methyl}-1-piperazinyl)-3-pyridinecarboxylate]", "values": [{"measurement": "use-dependent pUD15 against NaV1.7", "setting": "[1]", "value": "4-4.99"}, {"measurement": "use-dependent pUD15 against NaV1.3", "setting": "[2]", "value": "4-4.99"}]}
{"smiles": "CCc1cccc(CN[C@H]2CCN(c3ncccc3C(=O)OC(C)C)C2)c1", "note": "[Example 9, 1-Methylethyl 2-((3S)-3-{[(3-ethylphenyl)methyl]amino}-1-pyrrolidinyl)-3-pyridine carboxylate]", "values": [{"measurement": "use-dependent pUD15 against NaV1.7", "setting": "[1]", "value": "5-5.99"}, {"measurement": "use-dependent pUD15 against NaV1.3", "setting": "[2]", "value": "5-5.99"}]}
{"smiles": "CCN(Cc1cccc(Oc2ccc(Cl)cc2)c1)[C@@H]1CCN(c2ncccc2C(=O)OC(C)C)C1", "note": "[Example 56, 1-methylethyl 2-{(3R)-3-[({3-[(4-chlorophenyl)oxy]phenyl}methyl)(ethyl)amino]-1-pyrrolidinyl}-3-pyridinecarboxylate]", "values": [{"measurement": "use-dependent pUD15 against NaV1.7", "setting": "[1]", "value": "4-4.99"}, {"measurement": "use-dependent pUD15 against NaV1.3", "setting": "[2]", "value": "4-4.99"}]}
